## Primary screen of a compound library

The chains behind the UniProt entries cited, without tags or fusion partners. Residues count along the entry.
UniProt I6X8D2, whole entry: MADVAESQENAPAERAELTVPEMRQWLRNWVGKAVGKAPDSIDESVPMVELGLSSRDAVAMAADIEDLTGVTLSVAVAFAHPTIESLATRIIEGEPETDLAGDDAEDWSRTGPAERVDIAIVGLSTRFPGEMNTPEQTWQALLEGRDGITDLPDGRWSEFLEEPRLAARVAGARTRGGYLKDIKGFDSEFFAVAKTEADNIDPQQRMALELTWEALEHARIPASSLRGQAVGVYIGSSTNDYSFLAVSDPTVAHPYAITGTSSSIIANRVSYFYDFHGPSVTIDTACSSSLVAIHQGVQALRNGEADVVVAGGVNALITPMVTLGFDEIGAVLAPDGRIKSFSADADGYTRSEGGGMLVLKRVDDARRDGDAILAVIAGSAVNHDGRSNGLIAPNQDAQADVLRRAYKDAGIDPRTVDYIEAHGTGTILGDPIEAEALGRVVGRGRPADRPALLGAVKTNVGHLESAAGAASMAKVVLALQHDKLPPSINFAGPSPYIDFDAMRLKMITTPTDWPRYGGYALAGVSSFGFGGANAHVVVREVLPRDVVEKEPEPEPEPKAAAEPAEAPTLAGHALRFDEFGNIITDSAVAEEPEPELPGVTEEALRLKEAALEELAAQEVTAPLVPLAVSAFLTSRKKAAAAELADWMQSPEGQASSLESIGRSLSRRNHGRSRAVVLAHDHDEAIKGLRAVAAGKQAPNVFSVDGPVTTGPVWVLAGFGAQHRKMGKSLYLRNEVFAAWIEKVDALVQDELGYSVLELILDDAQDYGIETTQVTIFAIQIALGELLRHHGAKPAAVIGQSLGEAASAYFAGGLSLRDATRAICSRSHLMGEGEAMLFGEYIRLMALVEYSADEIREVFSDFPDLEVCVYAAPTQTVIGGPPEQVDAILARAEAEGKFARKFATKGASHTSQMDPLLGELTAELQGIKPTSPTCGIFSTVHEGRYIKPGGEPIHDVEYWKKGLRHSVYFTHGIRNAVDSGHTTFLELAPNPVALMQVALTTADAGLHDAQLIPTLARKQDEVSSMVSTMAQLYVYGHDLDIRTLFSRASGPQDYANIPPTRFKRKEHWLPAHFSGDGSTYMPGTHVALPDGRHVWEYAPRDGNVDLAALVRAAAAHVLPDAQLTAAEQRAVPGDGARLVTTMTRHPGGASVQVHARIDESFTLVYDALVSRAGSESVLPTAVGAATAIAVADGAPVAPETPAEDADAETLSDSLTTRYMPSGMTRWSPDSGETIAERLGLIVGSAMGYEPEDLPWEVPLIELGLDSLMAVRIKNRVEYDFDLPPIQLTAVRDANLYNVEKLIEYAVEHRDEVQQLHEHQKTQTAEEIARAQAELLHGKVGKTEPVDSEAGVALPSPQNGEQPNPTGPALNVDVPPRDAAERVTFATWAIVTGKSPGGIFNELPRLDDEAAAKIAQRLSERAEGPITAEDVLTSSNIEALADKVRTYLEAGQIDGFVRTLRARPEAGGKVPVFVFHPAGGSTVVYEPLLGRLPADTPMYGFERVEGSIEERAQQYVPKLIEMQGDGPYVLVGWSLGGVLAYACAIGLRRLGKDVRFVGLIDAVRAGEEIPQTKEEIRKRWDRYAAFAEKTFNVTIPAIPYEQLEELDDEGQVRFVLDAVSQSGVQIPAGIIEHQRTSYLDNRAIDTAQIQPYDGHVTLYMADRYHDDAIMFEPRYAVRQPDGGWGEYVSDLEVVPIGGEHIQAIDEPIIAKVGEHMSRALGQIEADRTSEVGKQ
UniProt P9WNZ1, whole entry: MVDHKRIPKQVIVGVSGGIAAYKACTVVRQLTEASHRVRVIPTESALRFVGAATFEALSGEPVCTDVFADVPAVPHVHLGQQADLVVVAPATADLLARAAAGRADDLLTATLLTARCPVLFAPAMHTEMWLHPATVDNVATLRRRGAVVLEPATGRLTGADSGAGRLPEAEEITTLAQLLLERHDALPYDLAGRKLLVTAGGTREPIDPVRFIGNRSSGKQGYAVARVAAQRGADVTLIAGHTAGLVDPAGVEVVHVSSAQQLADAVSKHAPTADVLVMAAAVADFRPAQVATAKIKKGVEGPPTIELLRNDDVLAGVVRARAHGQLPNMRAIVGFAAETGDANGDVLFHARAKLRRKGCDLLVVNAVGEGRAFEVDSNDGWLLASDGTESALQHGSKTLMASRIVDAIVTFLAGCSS
UniProt P9WFT3, whole entry: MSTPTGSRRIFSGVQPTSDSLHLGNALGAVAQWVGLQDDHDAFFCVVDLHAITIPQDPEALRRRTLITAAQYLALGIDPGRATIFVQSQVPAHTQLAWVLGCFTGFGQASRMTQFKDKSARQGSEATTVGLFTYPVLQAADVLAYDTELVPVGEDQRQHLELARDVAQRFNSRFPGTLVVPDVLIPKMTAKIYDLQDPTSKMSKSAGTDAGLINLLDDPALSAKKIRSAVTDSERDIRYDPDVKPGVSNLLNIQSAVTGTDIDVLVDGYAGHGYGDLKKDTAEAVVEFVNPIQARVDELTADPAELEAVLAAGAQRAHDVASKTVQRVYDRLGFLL
UniProt A4I591, 1-473: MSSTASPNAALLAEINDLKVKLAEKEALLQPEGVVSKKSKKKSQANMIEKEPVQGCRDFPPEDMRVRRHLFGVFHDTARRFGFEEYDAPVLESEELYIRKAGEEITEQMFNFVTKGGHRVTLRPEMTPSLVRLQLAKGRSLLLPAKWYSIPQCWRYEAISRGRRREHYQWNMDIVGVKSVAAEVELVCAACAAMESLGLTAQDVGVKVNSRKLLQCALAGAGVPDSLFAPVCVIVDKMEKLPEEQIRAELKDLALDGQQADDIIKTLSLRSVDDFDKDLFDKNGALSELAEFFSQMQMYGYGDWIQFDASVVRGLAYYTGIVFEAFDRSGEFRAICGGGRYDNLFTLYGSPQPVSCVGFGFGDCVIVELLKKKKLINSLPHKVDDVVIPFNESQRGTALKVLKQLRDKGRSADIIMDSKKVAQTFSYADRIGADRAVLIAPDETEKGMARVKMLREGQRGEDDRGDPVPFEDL
UniProt Q4DA54, 1-478: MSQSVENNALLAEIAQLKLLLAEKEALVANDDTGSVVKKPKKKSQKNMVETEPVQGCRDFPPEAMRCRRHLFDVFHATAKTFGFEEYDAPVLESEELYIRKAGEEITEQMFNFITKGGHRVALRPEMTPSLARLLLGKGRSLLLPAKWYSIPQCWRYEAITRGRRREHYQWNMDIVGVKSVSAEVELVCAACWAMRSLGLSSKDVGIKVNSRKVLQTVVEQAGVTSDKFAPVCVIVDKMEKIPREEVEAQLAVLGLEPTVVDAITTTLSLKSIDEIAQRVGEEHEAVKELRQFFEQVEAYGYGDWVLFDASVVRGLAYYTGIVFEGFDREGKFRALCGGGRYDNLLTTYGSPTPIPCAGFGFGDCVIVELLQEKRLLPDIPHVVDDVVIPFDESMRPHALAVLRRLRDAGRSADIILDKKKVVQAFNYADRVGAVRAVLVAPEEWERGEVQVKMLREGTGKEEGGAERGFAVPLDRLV

Pks13 thioesterase: 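Polyketide synthase Pks13, Mycobacterium tuberculosis (UniProt I6X8D2). Enzyme assay of the thioesterase domain of polyketide synthase 13; the read-out is not stated. Concentration: 30 µM. Higher reads as stronger inhibition (inferred from which compounds were picked for retests). Of about 67,000 compounds tested this way, about 300 (0.46%) reached 50% or more in at least one test.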
Toxoplasma: 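Assay of Toxoplasma gondii numbers, read through their beta-galactosidase reporter with a colour substrate. Tested at 10 µM. The record gives no direction; the compounds picked for IC50 retests had high values, so higher reads as fewer parasites. About 67,000 compounds were tested under these conditions; 0.38% (about 260) showed 50% or more at least once.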
CoaBC: 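Enzyme assay of CoaBC with a phosphate dye (Biomol Green) read at 650 nm. Target: Coenzyme A biosynthesis protein CoaBC, Mycobacterium tuberculosis (UniProt P9WNZ1). Compounds at 30 µM. Direction is inferred from only a few compounds that gave an IC50; most scored high, so higher reads as stronger inhibition. Most strong results did not repeat in a second test. About 67,000 compounds were tested under these conditions; 0.06% (about 40) showed 50% or more at least once.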
MtTrpRS: 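Enzyme assay of tryptophanyl-tRNA synthetase; the read-out is not stated. Target: Tryptophan-tRNA ligase, Mycobacterium tuberculosis (UniProt P9WFT3). Compounds at 10 µM. Direction is not recorded; retested compounds ran higher, which suggests that high means inhibition. Of about 65,000 compounds tested this way, about 64 (0.098%) reached 50% or more in at least one test.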
LiHisRS: 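Enzyme assay of histidyl-tRNA synthetase; the read-out is not stated. Target: Histidine-tRNA ligase, Leishmania infantum (UniProt A4I591). Compounds at 30 µM. The record gives no direction; compounds that gave an IC50 in retests scored well above the rest, so higher reads as stronger inhibition. The assay is labelled LdHisRS but filed under L. infantum. About 69,000 compounds were tested under these conditions; 0.6% (about 410) showed 50% or more at least once.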
TcHisRS: 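Enzyme assay of histidyl-tRNA synthetase; the read-out is not stated. Target: Histidine-tRNA ligase, Trypanosoma cruzi CL Brener (UniProt Q4DA54). Compounds at 30 µM. The record gives no direction; compounds that gave an IC50 in retests scored well above the rest, so higher reads as stronger inhibition. Of about 69,000 compounds tested this way, about 31 (0.045%) reached 50% or more in at least one test.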

The filed quantity is “Percent Effect” (%). How 0% and 100% were set is not recorded. Most values in the screen are low, and negative values occur. This is an unselected part of the compounds tested. A dash means the value is not listed here; it may have been measured.

| SMILES | Pks13 thioesterase | Toxoplasma | CoaBC | MtTrpRS | LiHisRS | TcHisRS |
|---|---|---|---|---|---|---|
| `CC(C)Oc1ncccc1CNC(=O)N1CCC(C(N)=O)C1` (centres undefined) | -3.514% | -59.42% | -5.319% | -5.66% | 15.2% | 2.662% |
| `CC(=O)N1C[C@H](NC(=O)c2ccnc(N)c2)[C@@H](C(C)C)C1` | 4.033% | 5.978% | -3.194% | -1.12% | 2.381% | 1.176% |
| `Cc1nc(CN(C)CC2CCCN2c2cccnn2)nc2ccccc12` (centres undefined) | -24.22% | 3.243% | -17.49% | -3.499% | 74.38% | 47.06% |
| `CO[C@H]1CN(C(=O)c2ccc[nH]2)[C@@H]2COC[C@H]12` | -12.69% | - | -22.47% | -6.261% | -140.3% | -78.5% |
| `O=C(NCCO)C1(Cc2cc(-c3ccc(F)cc3F)no2)CCOCC1` | -43.82% | 5.189% | -6.111% | -4.431% | 16.67% | 0.5405% |
| `NC(=O)c1ccc(C(=O)N2CCCC(n3ccnc3)C2)s1` (centres undefined) | -18.69% | 20.27% | -16.09% | -5.735% | 15.38% | 5.413% |
| `FC(F)CN1CCC(NCCc2ccc(-n3cccn3)cc2)CC1` | -0.9095% | -17.26% | 4.177% | 4.068% | 17.5% | 3.727% |
| `O=C1CSC(c2ccc(O)cc2)c2sccc2N1` (centres undefined) | -185.6% | 2.041% | -6.21% | 5.348% | 11.67% | 2.273% |
| `CCC(C(=O)N1CCCSCC1)N1CCCC1=O` (centres undefined) | 9.25% | -0.05348% | 1.375% | 11.72% | 6.14% | -3.448% |
| `CNc1cc(C)nc(C2COCCN2Cc2csc(C)n2)n1` (centres undefined) | -14.1% | 14.15% | -2.283% | -3.268% | 1.342% | 2% |
| `Cc1nn(C)c(C)c1C1CCCN1C(=O)c1ccc(Cl)o1` (centres undefined) | -29.3% | -2.245% | -6.832% | 0% | 21.15% | 2.674% |
| `[H][C@]12CC[C@]([H])(CN(C(=O)CCc3n[nH]c4c3CCCC4)C1)N(CC1CC1)C2` | - | -5.786% | - | - | - | - |
| `c1ccc(-c2nnc(CNCCn3cccn3)o2)cc1` | -37.63% | - | -5.913% | -1.338% | 1.124% | 3.008% |
| `CCCn1[nH]cc/c1=N\C(=O)CN1CCC[C@H]1CO` | -8.377% | 1.471% | 0.2484% | 1.817% | 12.7% | -1.538% |
| `Cc1ccnc(NCCNC(=O)CCNC(=O)c2ccccc2F)c1` | -2.841% | -3.287% | 2.133% | 0.2366% | 13.56% | 6.341% |
| `CCC(CC)c1nnc(NC(=O)N2CCCC(NC(C)=O)C2)s1` (centres undefined) | -32.12% | 4.466% | -4.968% | -0.8396% | 20% | 0% |
| `O=C(NCC1CC1)Nc1cccc(N2CCN(CC3CC3)CC2)c1` | -5.933% | 4.519% | 7.489% | -2.347% | 20.75% | 0.8475% |
| `O=C(O)C(F)(F)F.[H][C@@]12COC[C@]1(CN(C)C)CN(C(=O)Cc1ccc(OC)cc1)C2` | - | 6.267% | - | - | - | - |
| `CC(C)c1cc(C(=O)N2CCN(Cc3ccco3)CC2)n[nH]1` | 0.9072% | -1.449% | 8.155% | 23.31% | 13.11% | -6.977% |
| `Cc1ccc(OCCN2CCC(c3nc(C)n4c(C)csc34)CC2)cc1` | 8.069% | 17.21% | -2.219% | -6.464% | 16.9% | 9.848% |
| `COc1ccc(-c2cn3c(n2)CO[C@@H](CNCc2ccccn2)C3)cc1` | 19.09% | -3.74% | 13.02% | -0.9863% | 12.16% | 2.174% |
| `NC(=O)C1CCN(CCc2ccc(NC(=O)C3CC3)cc2)CC1` | -3.675% | 8.93% | 10.83% | -3.58% | 12.84% | 6.122% |
| `CCc1nnc2n1CCN(CC(=O)Nc1cc(C(C)(C)C)nn1C)C2` | -2.927% | -18.63% | 0.5319% | -1.73% | 8.8% | 1.901% |
| `CC(C)c1cc(NC(=O)CNC2CCc3nc(C(C)C)nn3C2)on1` (centres undefined) | -8.631% | 10.34% | 3.125% | 1.699% | 19.1% | 7.772% |
| `CC(C)c1nc(C2CCCN(c3cnc4ccccc4n3)C2)no1` (centres undefined) | -9.212% | -6.321% | -3.926% | -5.202% | 13.7% | 9.524% |
| `CCCOC(=O)N1CCCC2(CCN(Cc3cccc(C#N)c3)C2)C1` (centres undefined) | -16.37% | 9.055% | 0.1196% | 0.122% | 19.67% | 6.438% |
| `COc1c(CNC2CCN(c3ncccn3)CC2)c(C(C)C)nn1C` | -3.481% | 2.699% | 7.846% | 1.657% | 13.64% | 0% |
| `Cc1cc(C)c(CNC(=O)NCc2ccc(F)c(C)c2)c(=O)[nH]1` | -11.75% | -0.9253% | 3.571% | -9.032% | 18.18% | 9.357% |
| `Cc1cc(NC(=O)Cn2ncc(SCC(N)=O)c(Cl)c2=O)ccc1Br` | 1.382% | 21.5% | 0.7634% | -2.157% | 30.77% | -3.614% |
| `CC(C)Cc1noc(-c2ccc(NCc3noc(C(C)C)n3)nc2)n1` | 3.815% | 3.403% | 2.561% | -0.6623% | 8.791% | 4.217% |
| `CSCC(C)NS(=O)(=O)c1ccc(C)c(N(C)C)c1` (centres undefined) | -39.72% | -2.143% | 2.427% | -4.863% | 19.28% | 6.077% |
| `CN1CC2(CCCN(C(=O)Cc3cccc(O)c3)C2)OC1=O` (centres undefined) | -8.526% | -3.643% | 3.648% | -0.1361% | 17.7% | 2.679% |
| `CN(CCc1ccccn1)C(=O)c1cccs1` | -3.275% | - | -1.882% | 1.224% | 6.024% | 4.478% |
| `Cc1cc(CN2CCOC(C)(C(=O)N3CCOCC3)C2)no1` (centres undefined) | -10.65% | -5.472% | -0.9804% | - | 5.208% | 3.191% |
| `CNC(=O)c1cc(-n2ccnc2-c2cnc(N(C)C)nc2)ccc1OC` | -0.1266% | -1.872% | -1.831% | 4.095% | 15.49% | -9.392% |
| `Cc1cccc(C(C)(C)CNC(=O)CN(C)S(=O)(=O)c2cccnc2)c1` | -53.53% | 7.821% | 7.923% | -5.011% | 13.79% | 1.571% |
| `COCCN1Cc2ccccc2C2(CCN(C(=O)c3ccno3)CC2)C1` | -2.799% | -2.566% | -2.343% | -7.713% | 8.333% | 4.762% |
| `Clc1cccnc1OC1CCNCC1` | -14.84% | - | -1.277% | 3.214% | 15.58% | 2.424% |
| `CC(Nc1ccc(CCN2CCOCC2)cc1)C(=O)N(C)CCC#N` (centres undefined) | -11.31% | -0.2401% | 2.419% | 1.09% | 1.754% | 0.8403% |
| `CC1CCC(O)(CSc2nnnn2C2CC2)CC1` (centres undefined) | -5.902% | 6.872% | -0.8168% | 1.354% | 1.667% | 3.478% |
| `CCc1nccn1CCC(=O)N1CC(=O)N(c2ccccc2C)CC1C` (centres undefined) | -5.117% | 5.982% | -5.882% | 1.111% | 17.78% | 8.333% |
| `CN(C)C(=O)N1CCC2(CC1)CCN(Cc1ccccn1)C2=O.O=C(O)C(F)(F)F` | - | 6.843% | - | - | - | - |
| `Cc1cc(C)n(CC2CN(CC(=O)N3CCC3)CCO2)n1` (centres undefined) | 2.483% | 8.447% | -0.3871% | -2.337% | 15.65% | 6.322% |
| `CC(C)(C)OC(=O)N1CCC(NC2CCS(=O)(=O)C2)CC1` (centres undefined) | -30.66% | 0.2363% | 4.747% | -1.791% | 14.29% | 3.448% |
| `Cc1nc2ccnn2c(C)c1CCC(=O)N1CCC(C(N)=O)CC1` | -5.396% | -1.569% | 1.169% | -0.2924% | 7.576% | 1.515% |
| `COc1ccccc1N1CCN(Cc2cnc3c(c2)c(C)nn3C)CC1` | 1.692% | -0.7654% | 2.417% | 3.415% | 21.95% | 10.1% |
| `COCc1nn(CC2CC2)c2c1CN(Cc1cncn1C)CC2.O=C(O)C(F)(F)F` | - | -9.038% | - | - | - | - |
| `Cc1ccc(C(C(=O)NC(C)(C)CN2CCCC2)N(C)C)cc1` (centres undefined) | 0.8534% | 2.392% | 1.631% | 3.366% | 18.07% | 7.463% |
| `O=C(NCc1cc2n(n1)CCCN(Cc1ccc(CO)o1)C2)C1CCC1` | 5.374% | -38.69% | 1.327% | -1.522% | -2.4% | -1.508% |
| `Cc1cc(N2CCCC(O)(CN(C)C(=O)CCN)C2)c2cnccc2n1` (centres undefined) | 7.563% | -0.7782% | 8.219% | 2.263% | 4.027% | 2% |
| `Cc1ccccc1-n1cc(C2=CCN(CCn3cc[nH]c3=O)CC2)cn1` | -27.38% | 7.005% | 4.113% | -6.386% | 4.167% | 6.704% |

From ChEMBL document CHEMBL3988442, “University of Dundee, Small-Polar-MMV Screening Library” (2021).